# Results: patent US20150231240A1, “ANTI-C16ORF54 ANTIBODIES AND METHODS OF USE THEREOF” (priority 2012, published 2015)
# System: C16orf54
# Assay: Surface tagged antigen profiling (sTAg) with LC-MS/MS of primary tumor and normal samples
# Parameters: species or system human
# [1] = CRC, NAT (normal adjacent tissue)
# [2] = Lung, NAT (normal adjacent tissue)
# [3] = Ovary, NAT (normal adjacent tissue)
# [4] = Pancreas, NAT (normal adjacent tissue)
molecule,measurement,setting,value
C16orf54 (protein) MPLTPEPPSGRVEGPPAWEAAPWPSLPCGPCIPIMLVLATLAALFILTTAVLAERLFRRALRPDPSHRAPTLVWRPGGELWIEPMGTARERSEDWYGSAVPLLTDRAPEPPTQVGTLEARATAPPAPSAPNSAPSNLGPQTVLEVPARSTFWGPQPWEGRPPATGLVSWAEPEQRPEASVQFGSPQARRQRPGSPDPEWGLQPRVTLEQISAFWKREGRTSVGF,Expression by sTAg (Median % NSAF),"AML, BMMC",0.000 % NSAF
same,Prevalence,"AML, BMMC",0/16
same,Expression by sTAg (Median % NSAF),"AML, Tumor",0.084 % NSAF
same,Prevalence,"AML, Tumor",4/14
same,Expression by sTAg (Median % NSAF),"CLL, PBMC",0.022 % NSAF
same,Prevalence,"CLL, PBMC",0/15
same,Expression by sTAg (Median % NSAF),"CLL, Tumor",0.272 % NSAF
same,Prevalence,"CLL, Tumor",36/40
same,Expression by sTAg (Median % NSAF),[1],0.000 % NSAF
same,Prevalence,[1],0/22
same,Expression by sTAg (Median % NSAF),"CRC, Tumor",0.000 % NSAF
same,Prevalence,"CRC, Tumor",0/27
same,Expression by sTAg (Median % NSAF),[2],0.000 % NSAF
same,Prevalence,[2],0/75
same,Expression by sTAg (Median % NSAF),"Lung, Tumor",0.000 % NSAF
same,Prevalence,"Lung, Tumor",0/89
same,Expression by sTAg (Median % NSAF),"MM, BMMC",0.000 % NSAF
same,Prevalence,"MM, BMMC",0/16
same,Expression by sTAg (Median % NSAF),"MM, Tumor",0.110 % NSAF
same,Prevalence,"MM, Tumor",1/30
same,Expression by sTAg (Median % NSAF),[3],0.000 % NSAF
same,Prevalence,[3],0/10
same,Expression by sTAg (Median % NSAF),"Ovary, Tumor",0.000 % NSAF
same,Prevalence,"Ovary, Tumor",0/53
same,Expression by sTAg (Median % NSAF),[4],0.000 % NSAF
same,Prevalence,[4],0/21
same,Expression by sTAg (Median % NSAF),"Pancreas, Tumor",0.000 % NSAF
same,Prevalence,"Pancreas, Tumor",0/41
same,Expression by sTAg (Median % NSAF),"Sarcoma, NAT (normal adjacent tissue)",0.000 % NSAF
same,Expression by sTAg (Median % NSAF),"Sarcoma, Tumor",0.000 % NSAF
same,Prevalence,"Sarcoma, Tumor",0/14
